Source: PMC9481135
Results are given in words; binding and its absence hold for the method and conditions named. Some binding calls cover weakened binding; strength is not graded here.

The chains behind the UniProt entries cited, without tags or fusion partners. Residues count along the entry.
UniProt P56536, residues 2-955: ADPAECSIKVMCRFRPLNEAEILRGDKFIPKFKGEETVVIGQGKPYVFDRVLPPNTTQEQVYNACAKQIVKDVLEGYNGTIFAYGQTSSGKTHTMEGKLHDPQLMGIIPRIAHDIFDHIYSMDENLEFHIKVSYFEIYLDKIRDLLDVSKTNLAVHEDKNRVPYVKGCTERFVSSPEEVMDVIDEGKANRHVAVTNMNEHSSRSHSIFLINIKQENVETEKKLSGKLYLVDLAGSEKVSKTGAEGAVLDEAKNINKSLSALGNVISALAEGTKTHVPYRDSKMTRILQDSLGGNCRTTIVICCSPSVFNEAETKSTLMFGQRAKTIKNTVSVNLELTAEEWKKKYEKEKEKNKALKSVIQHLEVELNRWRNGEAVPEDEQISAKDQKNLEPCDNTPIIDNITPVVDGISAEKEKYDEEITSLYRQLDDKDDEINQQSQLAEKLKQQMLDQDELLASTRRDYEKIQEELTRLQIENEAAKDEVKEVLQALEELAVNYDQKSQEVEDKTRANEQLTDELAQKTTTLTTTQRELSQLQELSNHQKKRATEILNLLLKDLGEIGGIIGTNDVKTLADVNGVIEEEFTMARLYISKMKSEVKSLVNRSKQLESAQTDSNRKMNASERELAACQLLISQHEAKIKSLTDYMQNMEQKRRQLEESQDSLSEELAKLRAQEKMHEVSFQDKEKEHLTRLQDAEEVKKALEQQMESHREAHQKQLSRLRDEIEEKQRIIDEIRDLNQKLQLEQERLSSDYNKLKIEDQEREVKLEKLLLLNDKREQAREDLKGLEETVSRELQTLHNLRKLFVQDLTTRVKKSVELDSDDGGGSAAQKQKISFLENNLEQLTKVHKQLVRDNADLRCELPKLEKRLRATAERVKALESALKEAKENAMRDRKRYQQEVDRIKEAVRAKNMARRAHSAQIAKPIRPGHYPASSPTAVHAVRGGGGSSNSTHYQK

Molecular target: Rat KIF5C (kinesin-1 heavy chain), residues 2 to 955 (rat) (UniProt P56536)
Assay: negative-stain EM (single particle); Co-expressed, co-purified complex from SEC peak 2, cross-linked with 0.6 mM BS3, stained with 3% uranyl acetate; cryo-negative-stain dataset, RELION 2D classes and 3D reconstruction at 29.1 Å

binding: binds
Substance: Rat KIF5C (kinesin-1 heavy chain), residues 2 to 955 (from UniProt P56536 2-955)
